Measured values reported in article PMC12326010, “Substrate accessibility regulation of human TopIIa decatenation by cohesin” (Nature Communications, 2025).
Results are given in words; binding and its absence hold for the method and conditions named. Binding seen in cells or lysates may run through a third protein. Binding can be weak; no strength is given. Tags and fused reporters may be left off the sequences shown.

Biological target: T1, Human cohesin subunit STAG1 with C-terminal 3C-ybbr-tev-strepII tag (human) (UniProt Q8WVM7)
T1 sequence: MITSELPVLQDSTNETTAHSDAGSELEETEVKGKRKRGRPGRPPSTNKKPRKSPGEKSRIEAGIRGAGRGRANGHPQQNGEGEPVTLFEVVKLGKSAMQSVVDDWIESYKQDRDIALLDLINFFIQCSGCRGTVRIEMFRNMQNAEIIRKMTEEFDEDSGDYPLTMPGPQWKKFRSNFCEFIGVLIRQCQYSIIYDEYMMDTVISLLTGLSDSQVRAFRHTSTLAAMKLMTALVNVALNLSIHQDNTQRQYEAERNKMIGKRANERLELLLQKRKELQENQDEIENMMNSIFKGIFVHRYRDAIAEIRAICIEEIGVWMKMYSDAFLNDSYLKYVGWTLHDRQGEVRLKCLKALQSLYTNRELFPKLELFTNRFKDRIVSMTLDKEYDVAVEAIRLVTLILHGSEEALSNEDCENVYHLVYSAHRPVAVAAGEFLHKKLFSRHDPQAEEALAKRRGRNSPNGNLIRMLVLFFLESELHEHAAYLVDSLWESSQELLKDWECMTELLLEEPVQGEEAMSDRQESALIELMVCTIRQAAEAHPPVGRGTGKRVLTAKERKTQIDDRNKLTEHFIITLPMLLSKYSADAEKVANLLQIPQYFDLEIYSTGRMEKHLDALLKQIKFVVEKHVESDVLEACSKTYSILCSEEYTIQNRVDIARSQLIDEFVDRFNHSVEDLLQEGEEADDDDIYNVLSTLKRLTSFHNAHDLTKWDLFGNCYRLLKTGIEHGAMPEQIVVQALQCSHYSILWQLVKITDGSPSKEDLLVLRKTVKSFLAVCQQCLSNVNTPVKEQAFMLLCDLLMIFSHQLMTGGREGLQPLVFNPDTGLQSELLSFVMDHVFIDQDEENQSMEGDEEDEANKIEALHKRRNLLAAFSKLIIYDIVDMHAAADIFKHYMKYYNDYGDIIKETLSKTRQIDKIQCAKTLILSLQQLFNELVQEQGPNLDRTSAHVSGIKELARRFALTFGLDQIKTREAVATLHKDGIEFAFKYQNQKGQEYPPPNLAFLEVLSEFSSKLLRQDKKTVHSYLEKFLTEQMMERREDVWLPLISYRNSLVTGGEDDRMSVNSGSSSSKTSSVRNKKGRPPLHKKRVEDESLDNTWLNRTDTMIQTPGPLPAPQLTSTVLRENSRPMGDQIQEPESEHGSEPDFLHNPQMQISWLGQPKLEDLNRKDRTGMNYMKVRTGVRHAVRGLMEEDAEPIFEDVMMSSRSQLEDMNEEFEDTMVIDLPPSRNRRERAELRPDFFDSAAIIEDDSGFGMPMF
Experiment: co-purification (Strep affinity, heparin, size exclusion); cohesin STAG1 tetramer co-expressed in insect cells; lysate loaded on StrepTrap HP (StrepII on STAG1), eluted with desthiobiotin, HiTrap Heparin, Superose 6; 20 mM HEPES pH 8, 300 mM KCl, 5 mM MgCl2, 1 mM DTT, 10% glycerol

Question: How did the binding turn out when Human cohesin subunit SMC1 was run?
Answer: binds
